In all, about 31,000 sequences went through this assay and about 1,400 (4.5%) were called active.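 The calls were made as follows: active = median seed-adjusted z-score above 1 or below -1; inactive = the rest.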 This is one part of the list.
Experiment: Novel Modifiers of Survival Motor Neuron (SMN) Protein: Gene Identification via Genome-wide siRNA Screen;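 also: luminescence tracks full-length SMN protein made from the SMN2 reporter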
Conditions: HEK293T SMN2-luciferase reporter, siRNA knockdown, 72 h; actives lie on both sides
Method in brief: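 Each of three siRNAs per gene is reverse-transfected (1 pmol) into reporter HEK293T cells whose luciferase output tracks SMN protein level. After 72 h culture, ONE-Glo luminescence is control-normalized, log10-transformed and MAD-standardized; Common Seed Analysis deprioritizes seed-driven hits.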

Row | Sequence | median seed-adjusted z-score
1 | AGGUGACCAAGUUCGCCGATT against ARL4C | inactive: -0.61
2 | GGAUUAACGAGAAUGAGAATT against FZR1 | inactive: 0.729
3 | CCAUCCCUACAAUAGGUUUTT against ARL14 | inactive: 0.417
4 | GGAACCGAGAAGCUACUAATT against DDX3X | inactive: 0.0136
5 | GUAUCAUUUUCACUCUCGATT against PHKA2 | inactive: 0.304
6 | CAGUUGCAUUGGUUCCCAUTT against EZH1 | inactive: 0.268
7 | GAGCUUCGCAAAAAUGUCATT against PKP3 | inactive: 0.205
8 | AUUGCCUCCUUGAGCCUUATT against KCTD17 | inactive: 0.492
9 | GGAUGAACUUGGGAUGUUUTT against RNF135 | inactive: 0.581
10 | CCACCUAUUUGCACAAGGATT against POMT2 | inactive: -0.614
11 | GGUCAGUCUUGAUUCUCGATT against RGS17 | inactive: -0.627
12 | AGCUGGUCGUAGCUAAGAATT against SFTPD | inactive: 0.289
13 | GAUUUUAACUCUACUGCAATT against TSN | inactive: 0.572
14 | GAACAAAAUCGGGAUCGAATT against TK2 | inactive: 0
15 | GGGUCAUGCAGCAUCAAUATT against ITGAM | active: -1.56
16 | GCUGUGAACUGACUCUGCATT against UROD | active: 1.11
17 | AGUAGUGAUUUGUAAACUUTT against DUSP22 | inactive: 0
18 | GGACAUGUCCACACGCGAATT against PITX2 | inactive: -0.231
19 | GAAGCUCUCCAGACCAUUUTT against MAPK14 | inactive: 0.142
20 | CGUAUACUUCCACAAGUAATT against HRB | inactive: 0.921
21 | CAACUACAGUAGAUCGAGATT against UBR2 | inactive: 0.632
22 | GGUUCACAUUCAGACCAUATT against GOLGA2 | inactive: 0.18
23 | GGAAUACAUAUGUUGGAAATT against UPP2 | inactive: 0.586
24 | GUAUGAUCGUGUAUACUGUTT against PCMTD2 | inactive: -0.0765
25 | AGCGCAUGAUUGACAGUGATT against CACNG1 | inactive: -0.452
26 | GGAAGGAAAGGACAUAGAATT against CLEC4C | inactive: 0.664
27 | CCAUCUCCCAGGUCUCUAATT against PBX4 | inactive: -0.855
28 | CCACCUUUGCAACGCGGAATT against TPSD1 | inactive: 0.0848
29 | GGAUAUUACAGCUAUUUGATT against USP10 | inactive: 0.182
30 | GGCCGAGACUUCUCCUUCATT against GRIN2C | inactive: -0.3

Quoted at random: 2 records from the list
Row | Sequence | median seed-adjusted z-score
15 | GGGUCAUGCAGCAUCAAUATT against ITGAM | active: -1.56
28 | CCACCUUUGCAACGCGGAATT against TPSD1 | inactive: 0.0848

— PubChem BioAssay AID1347426 (Functional Genomics Laboratory (NCATS/FGL), 2020)
